From publication PMC11126613

B1: RasGTPase-activating protein-binding protein-2 (protein, UniProt P97379 1-482)
chain: MVMEKPSPLLVGREFVRQYYTLLNKAPEYLHRFYGRNSSYVHGGVDASGKPQEAVYGQNDIHHKVLSLNFSECHTKIRHVDAHATLSDGVVVQVMGLLSNSGQPERKFMQTFVLAPEGSVPNKFYVHNDMFRYEDEVFGDSEPELDEESEDEVEEEQEDRQPSPEPVQENANSAYYDAHPVTNGIEEPLEESSHEPEPEPESETKTEELKPQVEEKHLEELEEKSATPPPAEPASLPQEPPKAFSWASVTSKNLPPSGTVSSSGIPPHVKAPVSQPRVDAKPEVQSQPPRVREQRPRERPGFPPRGPRPGRGDMEQNDSDNRRIIRYPDSHQLFVGNLPHDIDENELKEFFMSFGNVVELRINTKGVGGKLPNFGFVVFDDSEPVQRILIAKPIMFRGEVRLNVEEKKTRAARERETRGGGDDRRDIRRNDRGPGGPRGIVGGGMMRDRDGRGPPPRGGMTQKLGSGRGTGQMEGRFTGQRR
B2: Ras-interacting protein-1 (protein, UniProt Q3U0S6 1-961)
chain: MLSGERKEGGSPRFGKLHLPVGLWINSPRKQLAKLGRRWPSAASVKSSSSDTGSRSSEPLPPPPPPPHVELRRVGAVKAAGGASGSRAKRISQLFRGSGAGGAGGPGTPGGAQRWASEKKLPELAAGVAPEPPLPTRAAVPPGVLKIFASGLASGANYKSVLATERSTARELVAEALERYGLTGGRGAGDSGCVDAYALCDALGRPAVGVGGGEWRAEHLRVLADAERPLLVQDLWRARPGWARRFELRGREEARRLEQEAFGAADADGTNAPSWRTQKNRSRAASGGAALASPGPGSGSGTPTGSGGKERSENLSLRRSVSELSLQGRRRRQQERRQQALSMAPGAADAQMVPTDPGDFDQLTQCLIQAPSNRPYFLLLQGYQDAQDFVVYVMTREQHVFGRGGPSSSRGGSPAPYVDTFLNAPDILPRHCTVRAGPEPPAMVRPSRGAPVTHNGCLLLREAELHPGDLLGLGEHFLFMYKDPRSGGSGPARPSWLPARPGAAPPGPGWAFSCRLCGRGLQERGEALAAYLDGREPVLRFRPREEEALLGEIVRAAASGAGDLPPLGPATLLALCVQHSARELELGHLPRLLGRLARLIKEAVWEKIKEIGDRQPENHPEGVPEVPLTPEAVSVELRPLILWMANTTELLSFVQEKVLEMEKEADQEGLSSDPQLCNDLELCDEALALLDEVIMCTFQQSVYYLTKTLYSTLPALLDSNPFTAGAELPGPGAELEAMPPGLRPTLGVFQAALELTSQCELHPDLVSQTFGYLFFFSNASLLNSLMERGQGRPFYQWSRAVQIRTNLDLVLDWLQGAGLGDIATEFFRKLSIAVNLLCVPRTSLLKASWSSLRTDYPTLTPAQLHHLLSHYQLGPGRGPPPAWDPPPAERDAVDTGDIFESFSSHPPLILPLGSSRLRLTGPVTDDALHRELRRLRRLLWDLEQQELPANHRHGPPVASTP
B3: RasGTPase-activating protein-like-2 (protein, UniProt E9PW37 1-1286)
chain: MELSPSSGGAAEALSWPEMFTGLESDSPLPPEDLDAVVPVSGAVAGGMLDRILLESVCQQQSWVRVFDVKGPPTHRLSCGQSPYTETTSWERKYCILTDSQLVLLNKEKEMPVEGQDQQTDSTKGRCLRRTVSVPSEGQFPEYPQEGTTKLEVPAERSPRRRSISGTSTSEKPNSMDTANTSPFKVPGFFSKRLKGSIKRTKSQSKLDRNTSFRLPSLRNADDRSRGLPKLKESRSHESLLSPCSAVECLDLGRGEPVSVKPLHSSILGQDFCFEVTYLSGSKCFSCSSASERDKWMENLRRTVQPNKDNCRRAENVLRLWIIEAKDLAPKKKYFCELCLDDTLFARTTSKTKADNIFWGEHFEFYSLPPLHSITVHIYKDVEKKKKKDKNNYVGLVNIPTASVTGRQFVEKWYPVSTPTPNKGKTGGPSIRIKSRFQTITILPMEQYKEFAEFITSNYTMLCSVLEPVISVRNKEELACALVHILQSTGRAKDFLTDLVMSEVDRCGEHDVLIFRENTIATKSIEEYLKLVGQQYLHDALGEFIKALYESDENCEVDPSKCSSSELMDHQSNLKMCCELAFCKIINSYCVFPRELKEVFASWKQQCLNRGKQDISERLISASLFLRFLCPAIMSPSLFNLMQEYPDDRTSRTLTLIAKVIQNLANFAKFGNKEEYMAFMNDFLEHEWGGMKRFLLEISNPDTISNTPGFDGYIDLGRELSVLHSLLWEVVSQLDKGENSFLQATVAKLGPLPRVLADITKSLTNPTPIQQQLRRFAEHSSSPNVSGSLSSGLQRICEDPTDSDLHKLKSPSQDNTDSYFRGKTLLLVQQASSQSMTYSEKDEKENSLPNGRSISLMDLQDTHAAQAEHASVMLDVPMRLAGSQLSITQVASIKQLRETQSTPQSAPQVRRPLHPALNQPGSLQPLSFQNPVYHLNNPVPAMPKASADSSLENLSTASSRSQSNSEDFKLSGPSNSSMEDFTKRSSHSEDFSRRHTVPDRHIPLALPRQNSTGQSQIRKLDHSGLGARAKAPPSLPHSASLRSTGSMSVASAALMAEPVQNGSRSRQQSSSSRESPVPKVRAIQRQQTQQVQSPVDSATMSPVERTAAWVLNNGQYEEDVEETEQNQDEAKHAEKYEQEITKLKERLRVSSRRLEEYERRLLVQEQQMQKLLLEYKARLEDSEERLRRQQEEKDSQMKSIISRLMAVEEELKKDHAEMQAVIDAKQKIIDAQEKRIVSLDSANTRLMSALTQVKERYSMQVRNGISPTNPTKLSITENGEFKNSSC
B4: Rab21 (protein, UniProt P35282 1-222)
chain: MAAAGGGAAAAAGRAYSFKVVLLGEGCVGKTSLVLRYCENKFNDKHITTLQASFLTKKLNIGGKRVNLAIWDTAGQERFHALGPIYYRDSNGAILVYDVTDEDSFQKVKNWVKELRKMLGNEICLCIVGNKIDLEKERHVSIQEAESYAESVGAKHYHTSAKQNKGIEELFLDLCKRMIETAQVDERAKGNGSSQAGAARRGVQIIDDEPQAQSSGGCCSSG
B5: Centrosomal protein-63 (protein, UniProt Q3UPP8 1-700)
chain: MEALLEGIQNRGHSGGFLTSCEAELQELMKQIDIMVAHKKSEWEGQTHALETCLDIRDRELKALRSQLDMKHKEVGILHQQIEEHEKTKQEMAMEYKEELLKLQEELSRLKRSYEKLQKKQLREFRGNTKSFREDRSEIERLTGKIEEFRQKSLDWEKQRLIYQQQVSSLEAQRKALAEQSEIIQAQLANRKQKLESVELSSQSEIQHLNSKLERAKDTICANELEIERLNIRVNDLMGTNMTILQDHRQKEEKLRESEKLLEALQEEQKELKASLQSQETFILEAKMQEKLQTTLKAVGTQQSVERPLEDCQKERKYSSPGQGVLDNVLSQLDFSHSSEELLQAEVTRLEGSLESVSATCKQLSQELMEKYEELKRMEGHNNEYRTEIKKLKEQILQADQTYSSALEGMKMEISQLTRELHQRDITIASAKCSSSDMEKQLKAEMQKAEEKAVEHKEILSQLESLKLENHRLSETVMKLELGLHEAKEISLADLQENYIEALNKLVSENQQLQKDLMSTKSELEHATNMCKKKDGEIFNPAHSRAAGFKNAELKPIHGQHRHDGIKTEQYKTGHHSPRGQTLDSIDPVARGPSPLSSHISPGSSTVSLPSNFLFEAHSLPSVLDINDVNFSDSLSDCMNDQEEFVSSGSLPTSPLGSIATRFLEEEELRSHHILERLDAHIEELKRESEKTVRQFTALV
B6: Dynein light chain-3 (protein, UniProt P56387 1-116)
chain: MEGYQRPCDEVGFNADEAHNIVKECVDGVLGGNDYNENNINQWTASIVEQSITHLVKLGKAYKYIVTCAVVQRSPYGFHTASSCFWDTTSDGTCTIRWENRTMNCIVNVFAVAIVL
B7: Interleukin-12 receptor β1 (receptor, UniProt Q60837 20-738)
chain: QLGASGPGDGCCVEKTSFPEGASGSPLGPRNLSCYRVSKTDYECSWQYDGPEDNVSHVLWCCFVPPNHTHTGQERCRYFSSGPDRTVQFWEQDGIPVLSKVNFWVESRLGNRTMKSQKISQYLYNWTKTTPPLGHIKVSQSHRQLRMDWNVSEEAGAEVQFRRRMPTTNWTLGDCGPQVNSGSGVLGDIRGSMSESCLCPSENMAQEIQIRRRRRLSSGAPGGPWSDWSMPVCVPPEVLPQAKIKFLVEPLNQGGRRRLTMQGQSPQLAVPEGCRGRPGAQVKKHLVLVRMLSCRCQAQTSKTVPLGKKLNLSGATYDLNVLAKTRFGRSTIQKWHLPAQELTETRALNVSVGGNMTSMQWAAQAPGTTYCLEWQPWFQHRNHTHCTLIVPEEEDPAKMVTHSWSSKPTLEQEECYRITVFASKNPKNPMLWATVLSSYYFGGNASRAGTPRHVSVRNQTGDSVSVEWTASQLSTCPGVLTQYVVRCEAEDGAWESEWLVPPTKTQVTLDGLRSRVMYKVQVRADTARLPGAWSHPQRFSFEVQISRLSIIFASLGSFASVLLVGSLGYIGLNRAAWHLCPPLPTPCGSTAVEFPGSQGKQAWQWCNPEDFPEVLYPRDALVVEMPGDRGDGTESPQAAPECALDTRRPLETQRQRQVQALSEARRLGLAREDCPRGDLAHVTLPLLLGGVTQGASVLDDLWRTHKTAEPGPPTLGQEA
B8: Kif22 (protein, UniProt Q3V300 1-660)
chain: MSLRAKTCPQRREMASATSGPGRCVSKGGLGRRPPLARVRVAVRLRPFMDGETEAKELPCVRAIDSCSLEVANWKKYQETLKYQFDAFYGEKSTQQEVYVGSVQPILRHLLEGQNASVLAYGPTGAGKTHTMLGSPEQPGVIPRALMDLLQLAREESAEGRPWDVSVAMSYLEIYQEKVLDLLDPASGDLVIREDCRGNILIPGLTQKPITSFSDFEQHFLPASRNRAVGATRLNQRSSRSHAVLLVKVDQRERLTPFRQREGKLYLIDLAGSEDNRRTGNQGIRLKESGAINTSLFVLGKVVDALNQGLPRIPYRDSKLTRLLQDSLGGSAHSILIANIAPERRFYQDTISALNFTARSKEVINRPFTNESLQPHALAPVKLSQKELLGPSEAKKAKGPEEESTGSPESTAAPASASQKLSLLQKLSNMDPAMLENLLSMERLLGSQGSQGTPLLNTPKRERMVLMKTVEEKNLEIERLKMKQKELEAKVLAQEAPDPREKENTPTILQPPASYSGTVAKPLKKAVVMPLQRIQKQRESSNQIQLLKKGPKRKLEPSPESEAVEKDEDYWEVQISPELLAHGRKKLLDLLNEGSARELRSLQRIGQKKAQLIVGWRELHGPFSEVEDLEQVEGISGKQVESFLKANLLSLAASQHSGPS
B9: Kif2c (protein, UniProt Q922S8 1-721)
chain: MESLHARLFPGLSINIQRSNGLIHPANISTVNVEKSCVSVEWIEGGTTKGKEIDIDDVAAINPELLQLLPLRPKDSLPLQENVTVPKQKRKSVNSKIPALKEGLRSRSTRMSTVSEVRIPAQENEMEVELPVPTNSRKQFAIPSHPRASCSTVTELPLLMVSEEAEEQAHSTRSTSSANPGNSVRRKSCIVKEMEKMKNKREEKRAQNSELRIKRAQEYDSSFPNWEFARMIKEFRVTMECSPLTVTDPIEEHRICVCVRKRPLNKQELAKKEIDVISVPSKCLLLVHEPKLKVDLTKYLENQAFCFDFAFDETASNEVVYRFTARPLVQTIFEGGKATCFAYGQTGSGKTHTMGGDLSGKSQNASKGIYAMASRDVFLLKNQPRYRNLNLEVYVTFFEIYNGKVFDLLNKKAKLRVLEDSRQQVQVVGLQEYLVTCADDVIKMINMGSACRTSGQTFANSNSSRSHACFQILLRTKGRLHGKFSLVDLAGNERGADTSSADRQTRMEGAEINKSLLALKECIRALGQNKAHTPFRESKLTQVLRDSFIGENSRTCMIAMISPGISSCEYTLNTLRYADRVKELSPHSGPSGEQPVQMETEVMEASSNGTSLTGNEEEELSSQMSSFNEAMTQIRELEERALEELREIIQQGPNWLELSEMTDQPDYDLETFVNKAESALTQQAKQAKHFSALREVIKALRLAMQLEEQASKQINSKKRHQ

Target: α5 integrin (mouse (endogenous in mouse lung microvascular ECs))
Experiment: affinity purification with mass spectrometry; endogenous α5 integrin immunoprecipitated (Dynabeads Protein G with anti-α5 integrin antibody, 4 °C) from mouse microvascular EC lysates: WT/Ctrl, and siNRP1, siNRP2, siNRP1/2, sip120RasGAP ECs; α5.EC KO lysates as control for non-specific binding; LFQ-DIA-MS, Spectronaut, p < 0.01 cutoff; three independent experiments

Binder | binding
B1 | binds
B2 | binds
B3 | binds
B4 | binds
B5 | binds
B6 | binds
B7 | binds
B8 | binds
B9 | binds

Results are given in words; binding and its absence hold for the method and conditions named. Binding seen in cells or lysates may run through a third protein. Here binding means that the protein was enriched with, or labelled near, the bait; the list need not be complete.
